Results are given in words; binding and its absence hold for the method and conditions named. Some entries that bind do so weakly or less than the wild type. Tags and fused reporters may be left off the sequences shown.

This experiment addresses T1, mouse TREM2 (mouse) (UniProt Q99NH8).
T1 sequence (looked up): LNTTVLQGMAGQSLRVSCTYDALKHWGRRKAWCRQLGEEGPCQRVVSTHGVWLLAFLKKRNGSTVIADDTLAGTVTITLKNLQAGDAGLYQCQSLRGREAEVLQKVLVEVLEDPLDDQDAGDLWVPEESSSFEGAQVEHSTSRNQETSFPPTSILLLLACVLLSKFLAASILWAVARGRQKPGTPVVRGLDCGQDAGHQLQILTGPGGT
Briefly: flow cytometry on TREM2 transfected reporter cells, anti-mouse IgG-PE secondary.

B1: Recombinant Fc mutated (mouse IgG2a, LALAPG) anti-murine TREM2 antibody (clone 178) (antibody, V domains shown)
VH: EVQLQQSGPELRRPGSSVKLSCKASGYSIIDYLMHWVKHRPGHGLEWIGWIDPENGETKYAQKFQRKATLTADTSSSTAYMQLSSLTSEDTATYFCARQQLRYVMDAWGQGGSVTVSS
VL: DVQMTQSPYNLAASPGESVSINCKASKSISKYLAWYQQKPGKTNKLLIYDGSTLQSGIPSRFSGSGSGTDFTLTIRSLEPEDFGLYYCQQHNEYPLTFGSGTKLEIKR
B1: the binding result was “binds”.

The record behind these values is patent US20230183340A1.
